PubChem BioAssay AID504774 | Drosophila RNAi Screening Center, 2011
Test: 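Fly genes whose loss alters survival after alkylation damage to DNA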 (primary screen). System: Drosophila Kc167 cells. Reagent: long dsRNA against Drosophila genes, about 0.25 µg dsRNA per well. Duration: about 6 days: 3 days knock-down, then 3 days with or without MMS. Challenge: methyl methanesulphonate 0.004% (w/v) for 3 days after knock-down. Measurement: 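ATP-dependent luminescence as a measure of live cells in MMS-exposed wells, quantile normalised within each plate, with replicate values also given as a mean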. Reading the numbers: mean viability with MMS: higher = more surviving cells after MMS.
The screen tested about 23,000 reagents; this is a random part of those with a known target gene and a result. 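Values are quantile-normalised luminescence on an arbitrary scale; higher means more cells surviving MMS.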 Reagents against one gene are numbered here. A plus sign joins genes that one reagent is predicted to hit. Not all columns of the deposit are shown. No sequences are given here.

The first 3 records, to show the layout:
CG12479 | mean viability with MMS: 3.63e6
CG15172 | mean viability with MMS: 3.56e6
CG17364 #1 | mean viability with MMS: 3.38e6

Main list, repeating the preview:
CG12479 | mean viability with MMS: 3.63e6
CG15172 | mean viability with MMS: 3.56e6
CG17364 #1 | mean viability with MMS: 3.38e6
CG17364 #2 | mean viability with MMS: 3.33e6
CG17364 #3 | mean viability with MMS: 3.65e6
CG6959 | mean viability with MMS: 3.65e6
CG17294 | mean viability with MMS: 3.48e6
Obp56h | mean viability with MMS: 3.39e6
CG17999 | mean viability with MMS: 3.63e6
CG4658 | mean viability with MMS: 3.35e6
CG30098 | mean viability with MMS: 3.39e6
CG12861 #1 | mean viability with MMS: 3.54e6
CG12861 #2 | mean viability with MMS: 3.59e6
SkpF + CG5357 (retired record) | mean viability with MMS: 3.46e6
cN-IIIB | mean viability with MMS: 3.59e6
CG30268 | mean viability with MMS: 3.46e6
CG18808 | mean viability with MMS: 3.61e6
CG3505 | mean viability with MMS: 3.75e6
Klp64D | mean viability with MMS: 3.68e6
mdlc | mean viability with MMS: 3.39e6
CG13843 | mean viability with MMS: 3.45e6
CG30203 | mean viability with MMS: 3.50e6
Nubp2 | mean viability with MMS: 3.47e6
CG34354 #1 | mean viability with MMS: 3.57e6
CG34354 #2 | mean viability with MMS: 2.86e6
CG34354 #3 | mean viability with MMS: 2.83e6
CG34354 #4 | mean viability with MMS: 3.68e6
CG34354 #5 | mean viability with MMS: 3.39e6
